Data as given in PubChem BioAssay AID1159578 (Peter MacCallum Cancer Centre, 2015)

Aim: 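Genome-wide hunt for genes controlling movement of lymphatic endothelial cells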 (primary screen)
Cells: human lymphatic endothelial cells
Reagent: siRNA pool against human genes, 40 nM
Duration: 48 h after transfection
Measured: 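High-content imaging of dye-stained cells in a scratch assay measures filled wound area and nuclei per well; duplicate means given as ratio to mock and robust z-score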
Direction: migration robust z-score: higher = faster migration into the scratch; nuclei per well: higher = more cells in the well
Active means: 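Pools averaging fewer than 3300 nuclei are never called; remaining pools count as changed when migration robust z lies outside -2 to 2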
Calls: active = migration changed; inactive = no migration change, or too few cells
The deposit covers about 18,000 reagents; shown is an unselected part. Of all reagents, about 1,030 (5.7%) got an active call. 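Inactive calls also include pools with fewer than 3300 nuclei, whose migration was not assessed.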 Raw values are not corrected between plates. Not all columns of the deposit are shown.

How did the screen score STAP2 [SID255358725]?
migration robust z-score: -0.21; migration class with cell-count check: migration z between -2 and 2; enough cells; nuclei per well, duplicate mean: 6403; call: inactive

What did the screen give for IQCB1 [SID255354449]?
migration robust z-score: 1.01; migration class with cell-count check: migration z between -2 and 2; enough cells; nuclei per well, duplicate mean: 5266; call: inactive

How did the screen score FAT2 [SID255349633]?
migration robust z-score: -0.11; migration class with cell-count check: migration z between -2 and 2; enough cells; nuclei per well, duplicate mean: 4570; call: inactive

With MAP4K1 [SID255355665], how do the results read?
migration robust z-score: -1.5; migration class with cell-count check: migration z between -2 and 2; enough cells; nuclei per well, duplicate mean: 5329; call: inactive

Reformatted: entries from further up
target gene | PubChem SID | migration robust z-score | migration class with cell-count check | nuclei per well, duplicate mean | call
IQCB1 | SID255354449 | 1.01 | migration z between -2 and 2; enough cells | 5266 | inactive
FAT2 | SID255349633 | -0.11 | migration z between -2 and 2; enough cells | 4570 | inactive

Continued:
For DEDD [SID255354104], what was measured?
migration robust z-score: 0.06; migration class with cell-count check: migration z between -2 and 2; enough cells; nuclei per well, duplicate mean: 5934; call: inactive

For GALNT7 [SID255357907], what does the deposit list?
migration robust z-score: -1.01; migration class with cell-count check: migration z between -2 and 2; enough cells; nuclei per well, duplicate mean: 5558; call: inactive

For PSMB1 [SID255351883], what was measured?
migration robust z-score: 0.18; migration class with cell-count check: migration z between -2 and 2; enough cells; nuclei per well, duplicate mean: 5360; call: inactive

For CDH12 [SID255348831], what was measured?
migration robust z-score: 0.95; migration class with cell-count check: migration z between -2 and 2; enough cells; nuclei per well, duplicate mean: 6018; call: inactive

How did the screen score SIGLEC1 [SID255352534]?
migration robust z-score: 1.04; migration class with cell-count check: migration z between -2 and 2; enough cells; nuclei per well, duplicate mean: 6324; call: inactive

For SMIM14 [SID255364093], what does the deposit list?
migration robust z-score: -1.72; migration class with cell-count check: under 3300 nuclei; migration not judged; nuclei per well, duplicate mean: 2808; call: inactive

For PROM1 [SID255353860], how do the results read?
migration robust z-score: 0.37; migration class with cell-count check: migration z between -2 and 2; enough cells; nuclei per well, duplicate mean: 5559; call: inactive

For BCL6B [SID255364509], what was measured?
migration robust z-score: 1.06; migration class with cell-count check: migration z between -2 and 2; enough cells; nuclei per well, duplicate mean: 6446; call: inactive
